Data as given in PubChem BioAssay AID2551 (National Center for Advancing Translational Sciences (NCATS), 2010).
The whole screen tested about 310,000 compounds, of which about 17,000 (5.5%) were called active. The shares of active, inactive and inconclusive entries below differ from those in the screen. Calls come from the whole dose curve; as a rule, active = well fitted inhibition curve with a large enough effect; inconclusive = small, poorly fitted or top-dose-only effect, or effect the other way; inactive = no such curve, though single readings can be large or run the other way. Potencies beside an inconclusive call are fits to weak or partial responses and may not hold up.

The chains behind the UniProt entries cited, without tags or fusion partners. Where a name states a change or a piece, a line headed by the entry shows the natural chain unless it says otherwise.
UniProt P51450: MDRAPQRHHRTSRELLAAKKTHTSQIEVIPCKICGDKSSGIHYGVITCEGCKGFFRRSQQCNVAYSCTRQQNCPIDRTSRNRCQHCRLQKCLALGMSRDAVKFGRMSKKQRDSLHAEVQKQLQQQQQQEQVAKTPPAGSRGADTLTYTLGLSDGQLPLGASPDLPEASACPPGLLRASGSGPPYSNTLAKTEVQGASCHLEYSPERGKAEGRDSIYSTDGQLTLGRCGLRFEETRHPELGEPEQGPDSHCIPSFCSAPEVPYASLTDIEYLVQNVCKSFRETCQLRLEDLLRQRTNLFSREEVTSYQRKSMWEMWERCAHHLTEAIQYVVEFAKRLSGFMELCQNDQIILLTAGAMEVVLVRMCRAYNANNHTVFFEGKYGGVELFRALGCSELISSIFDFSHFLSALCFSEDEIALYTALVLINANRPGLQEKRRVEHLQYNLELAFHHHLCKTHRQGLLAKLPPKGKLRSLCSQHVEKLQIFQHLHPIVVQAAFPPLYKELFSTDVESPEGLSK

Each compound was assayed against Nuclear receptor ROR-gamma (Mus musculus) (UniProt P51450) (assay: qHTS for inhibitors of ROR gamma transcriptional activity). Settings: Drosophila S2 Gal4-RORgamma UAS-luciferase reporter, 20 h; series mostly up to 53.6 µM.
How it was run: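 Compounds are pin-transferred onto Drosophila Schneider cells expressing a copper-inducible Gal4–ROR gamma transactivation domain fusion. After 1 hr, copper sulfate is added to 700 uM final; luciferase is read 20 hr later.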
Note: nearly all actives have a fitted effect of over 60% in size.
Potency is the fitted concentration of half-maximal effect.

Potency, inactive:
COc1ccc(-c2c(C)nn(-c3ccccc3)c2NC(C)=O)cc1OC
Cc1cccc(NCc2ccccc2O)n1
Cc1ccccc1/C=C1\C(=O)Nc2ccc(F)cc21
COc1ccc(-c2csc(NC3CCCCC3)n2)c(OC)c1
COC(=O)c1ccccc1NC(=O)CCC(=O)N1CC(C)Oc2ccc(C)cc21 (centres undefined)
Cc1cccc(OCCn2nc(C(=O)O)c3ccccc3c2=O)c1
COc1ccc(N2CCN(c3ncccc3C#N)CC2)cc1
CCCCC(=O)NCc1ccc(F)cc1
CCOc1ncccc1C(=O)Nc1ccc(Cl)cc1
CCCCC(C(=O)NC(C)c1ccccc1)C(=O)NC(C)c1ccccc1 (centres undefined)
O=C(c1cnn2cccnc12)N1CCN(c2ccccc2)CC1
CCOc1ccc(-n2c(Cc3ccccc3)nnc2SCc2c(C)noc2C)cc1
Cc1ccc2c(c1)C1CN(C)CCC1N2C(=O)Nc1ccc(Cl)cc1 (centres undefined)

Four records drawn at random from those above, as already listed:
Potency, inactive:
COc1ccc(-c2c(C)nn(-c3ccccc3)c2NC(C)=O)cc1OC
Cc1cccc(OCCn2nc(C(=O)O)c3ccccc3c2=O)c1
O=C(c1cnn2cccnc12)N1CCN(c2ccccc2)CC1
COC(=O)c1ccccc1NC(=O)CCC(=O)N1CC(C)Oc2ccc(C)cc21 (centres undefined)

For convenience, 2 of the compounds above.
Potency, inactive:
CCOc1ccc(-n2c(Cc3ccccc3)nnc2SCc2c(C)noc2C)cc1
Cc1ccc2c(c1)C1CN(C)CCC1N2C(=O)Nc1ccc(Cl)cc1 (centres undefined)

Next part.

Potency, active:
COC(=O)c1ccccc1NC(=S)NC(=O)c1ccccc1 1 µM
C[C@@H](CO)NC(=O)c1ccc2c3n(nc2c1)-c1ccccc1CO3 6.31 µM
O=C(NCCc1ccccc1)c1cccc(N2CCCC2=O)c1 11.2 µM
COc1ccc(N=Nc2n(C)c3ccccc3[n+]2C)cc1 1.12 µM
O=C(NC(=S)NCCC1=CCCCC1)c1cncc(Br)c1 4.47 µM
CN(C)c1ccc(/C=N/NC2=NS(=O)(=O)c3ccccc32)cc1 3.98 µM
CCC(C)c1ccc(NC(=S)NC2CCN(Cc3ccccc3)CC2)cc1 (centres undefined) 7.08 µM
Cc1nc(-c2ccccn2)nc(SCC(=O)c2ccc(F)cc2)c1Cl 3.55 µM
S=c1[nH]nc(-c2ccco2)n1/N=C/C=C/c1ccccc1 2.51 µM
O=C(O)CCC(=O)Nc1ccc(C(=O)OC2CCCCC2)cc1 17.8 µM
CC(C)Nc1nc(Oc2ccc(Cl)cc2Cl)cc(C(F)(F)F)n1 25.1 µM
CCn1c(COc2ccc(C(C)C)cc2)nnc1SCC(=O)Nc1nccs1 11.2 µM
Cc1cc(C)c2ccc(NN)nc2c1O 6.31 µM

Potency, inconclusive:
CCCCNC(=S)NNC(=O)c1csc(C)c1C 1 µM [inhibitor, full curve]
CC(C)(C)CC(=O)Nc1nnc(CCc2ccccc2)s1 31.6 µM [activator, single point]
O=C(Nc1nc2ccc(F)cc2s1)c1cccc(S(=O)(=O)N2CCc3ccccc32)c1 35.5 µM [inhibitor, single point]
CCN(CC)S(=O)(=O)c1ccc(Cl)c(NC(=O)c2ccc(C#N)cc2)c1 14.1 µM [activator, single point]
COc1cc(OC)c2c(-c3ccccc3)cc(=O)oc2c1C(CCN1CCCC1)c1ccc2c(c1)OCO2 (centres undefined) 35.5 µM [inhibitor, single point]
Nc1nc(SCc2ccccc2)ns1 3.55 µM [activator, single point]
COc1cc(NC(=O)c2ccccc2F)ccc1NC(=O)c1cc2ccccc2o1 11.2 µM [inhibitor, partial curve, poor fit]
CS(=O)Cc1cc(Sc2ccccc2)nc(-c2ccncc2)n1 (centres undefined) 0.398 µM [inhibitor, partial curve, poor fit]
Cc1nc2ccccc2c(=O)n1NC(=O)c1ccco1 0.112 µM [inhibitor, partial curve, poor fit]
O=C(O)c1cccc(-n2cccc2/C=C\[N+](=O)[O-])c1 35.5 µM [inhibitor, single point]
c1csc(C2=NNC(=NC3CCCCC3)SC2)c1 31.6 µM [inhibitor, single point]
CCC(C(=O)O)N1C(=O)/C(=C/C(C)=C/c2ccccc2)SC1=S (centres undefined) 12.6 µM [activator, single point]
Cc1ccc2nsnc2c1S(=O)(=O)Nc1cccc2nsnc12 35.5 µM [inhibitor, single point]
CC(C)c1ccc(Nc2nc(CC(=O)O)cs2)cc1 17.8 µM [inhibitor, single point]
Cc1cc(C(=O)CSc2nnc(Nc3ccccc3)s2)c(C)n1CC1CCCO1 (centres undefined) 3.55 µM [inhibitor, single point]
COCCNC(=S)N1CCC(c2nc(-c3ccc(N(C)C)cc3)no2)CC1 14.1 µM [inhibitor, single point]
CCOC(=O)/C(Sc1nc(-c2ccccc2)cc(-c2ccccc2)c1C#N)=C(\C)O 10 µM [inhibitor, partial curve]
CCCCNC(=S)N/N=C/c1ccc(OCC(=O)Nc2c(C)cc(C)cc2C)c(OC)c1 5.62 µM [inhibitor, single point]
CC(C)C(NS(=O)(=O)c1c(Cl)cccc1Cl)C(=O)OCC(=O)c1c[nH]c2ccccc12 (centres undefined) 12.6 µM [activator, partial curve]
CC/C(C)=C1\SC(N2CCN(c3cccc(C(F)(F)F)c3)CC2)=NC1=O 3.98 µM [activator, single point]
O=C(c1cccc(Cl)c1)N1CCCC(c2ccc(Cl)cc2)=N1 2.82 µM [inhibitor, partial curve, poor fit]
CCCN(CCC)CCNc1c(N2CCN(C(=O)OCC)CC2)c(=O)c1=O 2.82 µM [inhibitor, partial curve]
Cc1ccccc1N1C(=O)CSC1=C(C#N)C#N 3.98 µM [inhibitor, full curve]
CC(C)C1N(C(N)=S)N=CC1(C)C (centres undefined) 20 µM [inhibitor, partial curve, poor fit]
O=C(Cc1ccccc1[N+](=O)[O-])NCc1ccc(Cl)cc1Cl 11.2 µM [inhibitor, single point]
O=S(=O)(c1ccccc1)c1nc(-c2ccco2)oc1Nc1ccccc1 12.6 µM [activator, partial curve]
COc1ccc2c(c1)-c1c(sn(-c3ccccc3)c1=S)C(C)(C)N2 22.4 µM [activator, single point]
O=c1c(-c2ccccc2)c1-c1ccccc1 35.5 µM [inhibitor, single point]
Cc1ccc(-c2nnc(N3CCCCCC3)c3ccccc23)cc1 22.4 µM [inhibitor, single point]
N#Cc1ccc(OCc2nnc(SCC(=O)c3ccccc3)n2-c2ccccc2)cc1 31.6 µM [activator, single point]
CC(C)c1ccc(OCC(=O)N(c2ccccn2)C2CCCCC2)cc1 5.62 µM [inhibitor, single point]
CCC(=O)OCC(=O)c1c(N)n(Cc2ccccc2)c(=O)n(C)c1=O 14.1 µM [activator, single point]
O=C(Cc1c[nH]c2ccccc12)NCc1ccc(Cl)cc1 12.6 µM [activator, single point]
Cc1csc(=N)n1-c1ccc(Cl)cc1 25.1 µM [inhibitor, single point]
COc1ccc(OC)c(C2C(C(=O)Nc3cccnc3)=C(C)NC3=C2C(=O)CCC3)c1 (centres undefined) 6.31 µM [activator, single point]
CCc1ccc(CNC(=O)c2ccc(NC(=O)C3=CSCCO3)cc2)cc1 2.82 µM [activator, single point]
CCOC(=O)c1cnc2c(ccc3ccccc32)c1N 0.398 µM [activator, single point]
Clc1cccc(NCc2cn3cccnc3n2)c1 17.8 µM [activator, single point]
CCOC(=O)C(NCc1ccco1)(NC(=O)c1ccccc1)C(F)(F)F (centres undefined) 7.08 µM [inhibitor, partial curve]
Cc1cc(C)c(-n2nnnc2SCC(=O)c2cccs2)c(C)c1 17.8 µM [activator, partial curve]
CCc1ccc(/C=N/n2c(C)cc(C)c(C#N)c2=O)cc1 2.51 µM [activator, partial curve]
Nc1nc2n(n1)C(c1cccc(Br)c1)CC(c1ccc(F)cc1)N2 (centres undefined) 7.08 µM [activator, partial curve]
Cc1ccc(-c2cc3ccccc3nc2N2CCCC2)cc1 31.6 µM [activator, single point]
O=C(NCCNc1ccc([N+](=O)[O-])cc1)c1ccc(Cl)cc1 3.16 µM [inhibitor, single point]
COc1ccc(-n2ncc3c(=O)n(CC(=O)N4CCCc5ccccc54)cnc32)cc1 35.5 µM [activator, single point]
COc1cc(OC)cc(C(=O)n2nc(C)cc2C)c1 35.5 µM [inhibitor, single point]
CCN1CCN(Cc2ccc(NC(=O)Nc3cccs3)cc2)CC1 14.1 µM [inhibitor, single point]
Cc1cc2n(c(=O)c1C#N)CCCN2c1ccccc1 6.31 µM [inhibitor, single point]
